Measurements from the supplement of paper PMC11006884.
The list shows a part of the results, in another mix than the full data.

Sequences of proteins named here, by UniProt entry; tags and fusion partners are left off. A change or cut given only in a name is not applied to a line headed by its entry.
UniProt P07814: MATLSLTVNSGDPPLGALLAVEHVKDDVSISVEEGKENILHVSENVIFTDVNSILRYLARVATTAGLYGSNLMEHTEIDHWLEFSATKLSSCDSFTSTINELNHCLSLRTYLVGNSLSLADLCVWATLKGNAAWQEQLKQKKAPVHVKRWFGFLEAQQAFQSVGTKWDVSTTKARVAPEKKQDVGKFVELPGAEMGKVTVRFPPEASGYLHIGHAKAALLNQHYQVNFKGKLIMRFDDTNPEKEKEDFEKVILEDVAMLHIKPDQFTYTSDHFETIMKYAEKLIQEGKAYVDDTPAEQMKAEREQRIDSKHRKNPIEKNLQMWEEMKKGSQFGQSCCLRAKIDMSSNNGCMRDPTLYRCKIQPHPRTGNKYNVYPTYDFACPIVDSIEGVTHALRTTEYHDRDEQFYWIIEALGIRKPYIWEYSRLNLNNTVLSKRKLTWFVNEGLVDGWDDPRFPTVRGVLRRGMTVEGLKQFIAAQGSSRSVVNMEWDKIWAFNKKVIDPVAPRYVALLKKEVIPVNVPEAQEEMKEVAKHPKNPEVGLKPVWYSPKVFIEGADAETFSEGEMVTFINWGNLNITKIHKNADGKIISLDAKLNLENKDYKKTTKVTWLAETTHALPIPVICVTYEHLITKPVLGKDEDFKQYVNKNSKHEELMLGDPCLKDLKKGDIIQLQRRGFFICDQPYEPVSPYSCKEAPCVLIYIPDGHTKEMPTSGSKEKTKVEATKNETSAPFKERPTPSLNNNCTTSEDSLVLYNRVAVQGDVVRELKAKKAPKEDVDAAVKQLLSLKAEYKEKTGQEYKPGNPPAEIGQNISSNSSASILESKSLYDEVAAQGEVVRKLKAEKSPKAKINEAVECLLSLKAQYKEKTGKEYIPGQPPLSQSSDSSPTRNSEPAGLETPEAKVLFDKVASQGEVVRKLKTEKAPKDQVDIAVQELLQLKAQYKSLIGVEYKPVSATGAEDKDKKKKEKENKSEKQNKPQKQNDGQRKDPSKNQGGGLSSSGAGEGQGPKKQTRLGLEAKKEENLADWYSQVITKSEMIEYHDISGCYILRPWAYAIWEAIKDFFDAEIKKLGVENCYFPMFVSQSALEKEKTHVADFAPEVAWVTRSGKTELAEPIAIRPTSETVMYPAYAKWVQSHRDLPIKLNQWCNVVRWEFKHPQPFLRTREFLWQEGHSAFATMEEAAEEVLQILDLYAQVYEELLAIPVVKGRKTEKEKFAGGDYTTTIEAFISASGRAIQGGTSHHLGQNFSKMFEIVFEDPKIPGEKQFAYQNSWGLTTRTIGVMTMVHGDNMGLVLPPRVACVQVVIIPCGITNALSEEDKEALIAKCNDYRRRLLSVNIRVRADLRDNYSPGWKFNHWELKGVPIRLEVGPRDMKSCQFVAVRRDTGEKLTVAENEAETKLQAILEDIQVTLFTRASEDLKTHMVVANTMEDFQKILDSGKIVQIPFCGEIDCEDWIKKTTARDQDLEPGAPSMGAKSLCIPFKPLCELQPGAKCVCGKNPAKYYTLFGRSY
UniProt P17655: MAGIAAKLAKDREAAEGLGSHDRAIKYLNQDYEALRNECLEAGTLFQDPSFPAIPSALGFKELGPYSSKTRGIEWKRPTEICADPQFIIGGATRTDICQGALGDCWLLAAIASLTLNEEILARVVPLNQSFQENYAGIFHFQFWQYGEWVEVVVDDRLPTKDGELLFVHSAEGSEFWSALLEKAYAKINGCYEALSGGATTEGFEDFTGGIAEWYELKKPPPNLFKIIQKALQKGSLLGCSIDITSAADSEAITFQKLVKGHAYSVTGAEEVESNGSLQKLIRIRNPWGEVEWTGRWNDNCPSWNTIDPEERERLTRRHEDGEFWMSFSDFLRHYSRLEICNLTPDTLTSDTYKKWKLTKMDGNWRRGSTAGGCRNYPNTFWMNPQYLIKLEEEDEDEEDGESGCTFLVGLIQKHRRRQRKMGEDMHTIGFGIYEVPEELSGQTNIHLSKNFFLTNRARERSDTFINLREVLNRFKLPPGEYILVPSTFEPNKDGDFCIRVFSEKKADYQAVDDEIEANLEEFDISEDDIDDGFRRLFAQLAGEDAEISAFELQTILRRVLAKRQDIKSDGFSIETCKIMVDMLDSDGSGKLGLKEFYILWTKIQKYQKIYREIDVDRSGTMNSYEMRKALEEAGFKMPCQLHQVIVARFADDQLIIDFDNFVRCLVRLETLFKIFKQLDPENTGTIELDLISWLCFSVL
UniProt P15924: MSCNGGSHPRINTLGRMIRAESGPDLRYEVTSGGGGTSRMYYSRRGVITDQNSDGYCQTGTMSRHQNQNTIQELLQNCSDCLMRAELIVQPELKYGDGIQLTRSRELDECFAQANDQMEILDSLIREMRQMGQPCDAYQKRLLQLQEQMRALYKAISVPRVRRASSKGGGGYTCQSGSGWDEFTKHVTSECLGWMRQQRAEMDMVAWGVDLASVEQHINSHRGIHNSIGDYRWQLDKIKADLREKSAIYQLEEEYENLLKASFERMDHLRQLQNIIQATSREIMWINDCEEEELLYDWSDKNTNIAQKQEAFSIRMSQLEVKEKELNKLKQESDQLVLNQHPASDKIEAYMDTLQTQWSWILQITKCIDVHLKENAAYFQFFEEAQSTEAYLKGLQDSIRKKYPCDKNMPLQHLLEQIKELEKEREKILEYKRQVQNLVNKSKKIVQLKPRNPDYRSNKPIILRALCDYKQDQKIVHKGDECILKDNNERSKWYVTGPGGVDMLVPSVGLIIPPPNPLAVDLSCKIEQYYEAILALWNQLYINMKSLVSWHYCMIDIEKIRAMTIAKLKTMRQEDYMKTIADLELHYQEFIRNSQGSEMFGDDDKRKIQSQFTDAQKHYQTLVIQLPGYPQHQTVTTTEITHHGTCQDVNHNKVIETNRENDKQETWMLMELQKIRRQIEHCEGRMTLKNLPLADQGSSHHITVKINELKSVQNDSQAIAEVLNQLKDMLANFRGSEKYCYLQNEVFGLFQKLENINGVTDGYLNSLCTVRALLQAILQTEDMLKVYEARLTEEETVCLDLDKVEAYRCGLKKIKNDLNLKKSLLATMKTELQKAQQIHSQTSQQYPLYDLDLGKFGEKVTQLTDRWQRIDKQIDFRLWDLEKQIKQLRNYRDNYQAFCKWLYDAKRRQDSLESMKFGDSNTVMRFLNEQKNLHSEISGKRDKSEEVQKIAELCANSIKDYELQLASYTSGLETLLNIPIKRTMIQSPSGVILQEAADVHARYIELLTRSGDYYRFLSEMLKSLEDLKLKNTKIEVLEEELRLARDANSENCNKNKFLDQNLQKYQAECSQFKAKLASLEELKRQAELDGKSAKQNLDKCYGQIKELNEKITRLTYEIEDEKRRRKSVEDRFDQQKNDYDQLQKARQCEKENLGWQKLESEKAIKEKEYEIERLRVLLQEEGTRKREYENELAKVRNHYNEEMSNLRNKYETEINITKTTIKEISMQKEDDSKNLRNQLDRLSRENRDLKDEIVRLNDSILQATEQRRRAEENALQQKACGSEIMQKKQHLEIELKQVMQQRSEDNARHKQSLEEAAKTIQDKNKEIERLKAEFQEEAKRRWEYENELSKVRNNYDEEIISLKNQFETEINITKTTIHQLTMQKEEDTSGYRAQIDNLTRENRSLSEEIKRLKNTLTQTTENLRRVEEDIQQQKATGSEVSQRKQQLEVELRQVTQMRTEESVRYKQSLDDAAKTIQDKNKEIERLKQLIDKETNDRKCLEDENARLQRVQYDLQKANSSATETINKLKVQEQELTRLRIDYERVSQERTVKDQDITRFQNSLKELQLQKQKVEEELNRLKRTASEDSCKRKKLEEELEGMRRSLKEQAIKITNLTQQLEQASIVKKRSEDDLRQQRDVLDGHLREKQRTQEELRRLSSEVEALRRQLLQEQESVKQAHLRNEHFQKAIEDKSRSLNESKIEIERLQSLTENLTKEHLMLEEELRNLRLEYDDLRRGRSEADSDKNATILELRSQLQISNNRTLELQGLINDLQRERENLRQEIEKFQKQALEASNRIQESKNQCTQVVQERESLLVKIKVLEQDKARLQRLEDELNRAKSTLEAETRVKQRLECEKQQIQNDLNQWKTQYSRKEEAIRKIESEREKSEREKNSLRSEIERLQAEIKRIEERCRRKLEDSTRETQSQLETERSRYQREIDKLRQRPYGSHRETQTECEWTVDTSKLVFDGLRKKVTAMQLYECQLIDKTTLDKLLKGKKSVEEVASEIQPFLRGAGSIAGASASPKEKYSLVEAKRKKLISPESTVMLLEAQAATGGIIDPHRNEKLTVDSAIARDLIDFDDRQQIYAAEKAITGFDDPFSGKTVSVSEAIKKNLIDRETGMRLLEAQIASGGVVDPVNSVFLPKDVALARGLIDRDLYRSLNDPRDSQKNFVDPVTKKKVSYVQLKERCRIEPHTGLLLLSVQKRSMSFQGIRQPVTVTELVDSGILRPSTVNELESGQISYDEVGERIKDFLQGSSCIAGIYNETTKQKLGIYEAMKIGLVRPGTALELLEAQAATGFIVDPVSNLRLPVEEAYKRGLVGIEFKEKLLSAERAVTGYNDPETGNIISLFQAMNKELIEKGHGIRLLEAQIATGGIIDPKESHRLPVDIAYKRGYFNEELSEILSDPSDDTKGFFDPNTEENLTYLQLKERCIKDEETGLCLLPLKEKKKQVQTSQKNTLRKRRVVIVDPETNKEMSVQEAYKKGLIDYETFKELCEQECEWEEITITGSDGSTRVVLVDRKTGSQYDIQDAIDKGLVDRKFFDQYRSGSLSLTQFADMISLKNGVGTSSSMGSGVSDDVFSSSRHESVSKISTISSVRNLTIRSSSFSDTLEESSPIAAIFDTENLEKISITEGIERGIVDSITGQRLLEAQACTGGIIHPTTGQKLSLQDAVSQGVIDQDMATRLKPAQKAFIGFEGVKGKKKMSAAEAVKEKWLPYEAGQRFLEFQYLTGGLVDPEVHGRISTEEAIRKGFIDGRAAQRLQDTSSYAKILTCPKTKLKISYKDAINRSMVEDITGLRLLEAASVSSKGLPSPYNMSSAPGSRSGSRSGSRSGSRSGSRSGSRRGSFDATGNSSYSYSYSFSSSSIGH
UniProt P07948: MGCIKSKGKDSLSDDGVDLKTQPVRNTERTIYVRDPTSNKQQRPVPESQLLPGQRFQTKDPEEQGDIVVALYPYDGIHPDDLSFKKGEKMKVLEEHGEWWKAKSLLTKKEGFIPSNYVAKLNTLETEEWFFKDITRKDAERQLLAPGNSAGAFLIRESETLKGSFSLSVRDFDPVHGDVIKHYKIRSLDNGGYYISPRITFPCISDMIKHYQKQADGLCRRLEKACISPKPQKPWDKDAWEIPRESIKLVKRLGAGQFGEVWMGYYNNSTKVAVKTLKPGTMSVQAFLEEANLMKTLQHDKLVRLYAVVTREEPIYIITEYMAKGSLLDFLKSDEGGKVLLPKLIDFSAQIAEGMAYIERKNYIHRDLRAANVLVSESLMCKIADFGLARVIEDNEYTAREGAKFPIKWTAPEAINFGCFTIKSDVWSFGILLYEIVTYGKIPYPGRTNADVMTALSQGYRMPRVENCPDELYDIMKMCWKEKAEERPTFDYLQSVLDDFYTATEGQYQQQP
UniProt P10599: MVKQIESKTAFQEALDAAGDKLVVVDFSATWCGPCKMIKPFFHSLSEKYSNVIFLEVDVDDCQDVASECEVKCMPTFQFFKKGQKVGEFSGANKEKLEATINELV
UniProt P15311, whole entry, looked up: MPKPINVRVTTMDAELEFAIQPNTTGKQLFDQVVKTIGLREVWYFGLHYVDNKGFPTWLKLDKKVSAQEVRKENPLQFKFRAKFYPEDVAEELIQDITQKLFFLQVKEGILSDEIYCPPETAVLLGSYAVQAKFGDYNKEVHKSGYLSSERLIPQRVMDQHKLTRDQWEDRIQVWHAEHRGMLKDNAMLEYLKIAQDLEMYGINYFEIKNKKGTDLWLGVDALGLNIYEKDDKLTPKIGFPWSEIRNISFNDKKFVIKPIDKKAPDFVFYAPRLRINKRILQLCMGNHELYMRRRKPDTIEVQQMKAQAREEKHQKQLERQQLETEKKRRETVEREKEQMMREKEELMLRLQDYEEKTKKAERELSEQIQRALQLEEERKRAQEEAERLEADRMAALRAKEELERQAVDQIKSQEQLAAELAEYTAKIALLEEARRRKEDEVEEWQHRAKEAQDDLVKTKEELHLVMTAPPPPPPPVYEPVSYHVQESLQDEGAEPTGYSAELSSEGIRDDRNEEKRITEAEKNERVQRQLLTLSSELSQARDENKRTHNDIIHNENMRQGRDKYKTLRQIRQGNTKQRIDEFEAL
UniProt P09497: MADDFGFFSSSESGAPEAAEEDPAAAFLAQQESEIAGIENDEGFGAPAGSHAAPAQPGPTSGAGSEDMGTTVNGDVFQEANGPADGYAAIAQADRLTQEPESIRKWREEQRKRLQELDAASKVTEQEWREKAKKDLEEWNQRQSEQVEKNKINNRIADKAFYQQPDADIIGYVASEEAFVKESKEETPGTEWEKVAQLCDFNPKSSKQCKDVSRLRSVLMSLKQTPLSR

Each target was assayed with COC(=O)C#Cc1ccccc1 [methyl 3-phenylpropiolate] (assay: log2 ratio of iodoacetamide-alkyne labeling of the cysteine site, DMSO over compound (competition); higher = stronger covalent engagement of the cysteine by the compound, active = 1 or more). Details: 500 µM; treatment time 1 h; system: HEK293T cell lysate.
Method in brief: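 HEK293T lysate (2 mg/mL) was incubated with electrophile (500 µM) or vehicle for 1 h at ambient temperature and then with iodoacetamide alkyne for 1 h. Labelled proteins were clicked to sCIP-TMT reagents, pooled, digested, enriched on streptavidin and measured by Orbitrap Eclipse LC-MS/MS with FAIMS, with FragPipe quantification. The per-cysteine log2 competition ratio is mean control-channel reporter intensity over mean compound-channel reporter intensity. Across three replicates with duplicate channels, cysteines quantified in only one replicate were excluded.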

log2 ratio of iodoacetamide-alkyne labeling, inactive:
EPRS C697 (UniProt P07814) 0.0971, UniProt P14618_C423 0.112, UniProt P14618_C424 -0.246, CAPN2 C405 (UniProt P17655) -0.0821, DSP C1069 (UniProt P15924) 0.596, PARP1 C908 (UniProt P09874) -0.0809, LAMC1 C1600 (UniProt P11047) 0.279, LYN C468 (UniProt P07948) -0.157, HSP90AA1 C420 (UniProt P07900) -0.4, TXN C73 (UniProt P10599) 0.114, EZR C284 (UniProt P15311) -0.0133, G6PD C232 (UniProt P11413) 0.0394, CLTB C199 (UniProt P09497) 0.549, GSPT1 C261 (UniProt P15170) 0.384, HSPD1 C447 (UniProt P10809) 0.203
